PubChem BioAssay AID1259308 – NCATS – 2017

Test: 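Knock-downs that increase output of a recombinant reporter protein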 (primary screen)
System: human HEK293 embryonic kidney cells stably expressing firefly luciferase (HEK-CMV-Luc2-Hygro)
Knock-down reagent: single siRNA against human genes, 0.8 pmol siRNA per well
Duration: 72 h
Read-out: 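Luciferase light (ONE-Glo) measured on one replicate plate set and viability (CellTiter-Glo) on the other, scaled to a negative control siRNA, with robust z-scores and luciferase per cell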
Direction: total luciferase, z-score and total luciferase, % of control: higher = more reporter protein produced; luciferase per cell, z-score: higher = more reporter output per viable cell; viable cells, % of control: higher = more viable cells
Rule for the call: 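Active when the median/MAD z-score for overall luciferase is greater than 3; a gene was taken forward for validation with new siRNAs if at least two of its three siRNAs passed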
Meaning of the calls: active = raised luciferase; inactive = no rise
This is an unselected part of about 59,000 deposited reagents. Over the whole deposit, about 1,510 (2.6%) got an active call. 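Calls use total luciferase alone and ignore viability, so some active siRNAs may act by altering cell number.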 Entries without a mark were called inactive. The numbers tell different reagents against one gene apart. Reagent sequences are not shown.

Target gene | reagent no. | total luciferase, z-score | total luciferase, % of control | luciferase per cell, z-score | viable cells, % of control
TGIF2LX | 1 | 0.987 | 102 | 0.19 | 108
TGIF2LX | 2 | 0.239 | 86.6 | 0.42 | 86.7
TGIF2LX | 3 | 0.0645 | 83.2 | 1.7 | 59.4
PERP | 1 | -1.2 | 58.1 | -1.1 | 86.7
PERP | 2 | 0.952 | 101 | 1.44 | 77
PERP | 3 | -0.0404 | 81.1 | -0.79 | 112
OSBPL1A | 1 | -0.529 | 71.4 | -0.492 | 90.8
OSBPL1A | 2 | -0.196 | 78 | -0.688 | 104
OSBPL1A | 3 | -0.63 | 69.3 | -0.433 | 86.9
ZNF174 | 1 | 1.14 | 105 | 0.848 | 93.5
ZNF174 | 2 | 0.229 | 86.4 | -0.314 | 105
ZNF174 | 3 | -0.17 | 78.5 | -0.853 | 110
CIMIP4 | 1 | -0.946 | 63.1 | -0.774 | 86.4
CIMIP4 | 2 | 0.0458 | 82.8 | -0.605 | 109
CIMIP4 | 3 | 1.69 | 115 | 0.913 | 101
CFAP95 | 1 | 0.993 | 102 | 0.315 | 105
CFAP95 | 2 | -0.291 | 76.1 | -0.221 | 90.1
CFAP95 | 3 | -1.57 | 50.7 | 0.632 | 47.9
PDCD6IP | 1 | 0.162 | 85.1 | -0.253 | 102
PDCD6IP | 2 | -0.222 | 77.5 | -0.353 | 95
PDCD6IP | 3 | -0.279 | 76.3 | -0.793 | 105
IL31 | 1 | 1.93 | 120 | 2.78 | 64.7
IL31 | 2 | -1.23 | 57.5 | -0.488 | 73.1
IL31 | 3 | 1.06 | 103 | 1.12 | 85.7

A stretch from the list above:
Target gene | reagent no. | total luciferase, z-score | total luciferase, % of control | luciferase per cell, z-score | viable cells, % of control
CIMIP4 | 3 | 1.69 | 115 | 0.913 | 101
CFAP95 | 1 | 0.993 | 102 | 0.315 | 105
CFAP95 | 2 | -0.291 | 76.1 | -0.221 | 90.1
CFAP95 | 3 | -1.57 | 50.7 | 0.632 | 47.9
PDCD6IP | 1 | 0.162 | 85.1 | -0.253 | 102
PDCD6IP | 2 | -0.222 | 77.5 | -0.353 | 95
PDCD6IP | 3 | -0.279 | 76.3 | -0.793 | 105

The listing continues.
Target gene | reagent no. | total luciferase, z-score | total luciferase, % of control | luciferase per cell, z-score | viable cells, % of control
MRPS21 | 1 | -0.616 | 69.6 | 0.634 | 65.8
MRPS21 | 2 | 0.331 | 88.5 | 1.13 | 73.5
MRPS21 | 3 | -0.37 | 74.5 | -0.381 | 92.1
PIGG | 1 | 0.0991 | 83.9 | -0.524 | 108
PIGG | 2 | 1.33 | 108 | 0.78 | 98.7
PIGG | 3 | 2.29 | 128 | 0.963 | 111
PIEZO1P1 | 1 | 0.171 | 85.3 | 0.195 | 90.5
PIEZO1P1 | 2 | 0.818 | 98.1 | 0.944 | 85.5
PIEZO1P1 | 3 | -1.15 | 59 | -1.22 | 91
KLHL3 | 1 | 0.759 | 97 | 0.997 | 83.4
KLHL3 | 2 | 1.91 | 120 | 0.991 | 103
KLHL3 | 3 | 0.76 | 97 | 0.448 | 96.3
MSMB | 1 | -0.529 | 71.4 | -0.531 | 91.7
MSMB | 2 | 0.196 | 85.8 | 0.18 | 91.4
MSMB | 3 | -0.202 | 77.9 | 0.229 | 81.9
SCYL2 | 1 | -0.403 | 73.9 | -0.111 | 85
SCYL2 | 2 | 0.916 | 100 | 0.669 | 93.8
SCYL2 | 3 | -0.172 | 78.5 | -0.157 | 91.4
ZNF280D | 1 | 0.279 | 87.4 | 0.011 | 97.4
ZNF280D | 2 | -0.0419 | 81.1 | -0.222 | 96
ZNF280D | 3 | -0.963 | 62.7 | -1.27 | 98
CBX5 | 1 | -0.228 | 77.3 | -0.313 | 93.9
CBX5 | 2 | 0.0889 | 83.7 | -0.317 | 102
CBX5 | 3 | -1.76 | 46.8 | -1.55 | 78.7
CHD6 | 1 | 0.084 | 83.6 | 0.00341 | 93.3
CHD6 | 2 | -0.0206 | 81.5 | -1.02 | 119
CHD6 | 3 | -0.336 | 75.2 | -0.27 | 90.2
ATP6V1B2 | 1 | 0.627 | 94.4 | 0.365 | 95.8
ATP6V1B2 | 2 | 0.501 | 91.9 | -0.281 | 111
ATP6V1B2 | 3 | 0.146 | 84.8 | -0.244 | 101
WDR49 | 1 | -0.161 | 78.7 | -0.461 | 99.3
WDR49 | 2 | 0.209 | 86 | -0.169 | 101
WDR49 | 3 | 0.33 | 88.4 | -0.0363 | 99.8
